Test results reported in PubChem BioAssay AID1508600 (Functional Genomics Laboratory (NCATS/FGL), 2020).
The campaign covered roughly 53,000 sequences. About 3,700 (7%) were called active.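 The calls were made as follows: active = gene knockdowns whose robust z-score for IL-1 alpha signal is at least 2 or at most -2, so actives lie on both sides; inactive = the rest.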 The list shows a part of the results.

Experiment: Components of the Cytosolic LPS Sensing Pathway: Gene Identification via Genome-wide siRNA Screen;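 also: robust z of the log signal after scaling to non-targeting control siRNA wells of the plate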
Conditions: RAW264.7 macrophages, IL-1a HTRF, actives lie on both sides, screened at 100 nM (by protocol), cells primed 5 h with Pam3CSK4 first
Summary of the method: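 RAW264.7; siRNA 100 nM final, RNAiMAX, 48h 37 degrees C; Pam3CSK4 5 h; LipidA + TransIT-TKO 24 h; IL-1a HTRF; CellTiter-Glo viability; robust z vs negative-control median.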

z-score, active:
GCCUCCUACUGGUUCCAAATT against Commd7 2.05
GGAGGUCUGGAUUAACUGUTT against Cd163l1 2.2
AUGGAAAAAGUGCACAAUCTT against Olfr1061 2.34

z-score, inactive:
GCAGUAUUACAAUAGGAUCTT against Magea9-ps 0.0318
GGAGACCAAAUAGCAUUUUTT against Olfr504 0.0671
GCGAUUGCAAGAGGACCUATT against Gm11507 0.408
GCCCUGGAUCAUUGAGUGATT against Atp2b1 0.749
GCCGAAGCCCUAUUUAUUATT against Artn 0.673
CGAUGGUAGAAUUCUUAGATT against Akap9 -0.659
CCUACACAUAUGAAGGAGUTT against Fabp2 0.069
GGAUGUAAUCCACUUCAAGTT against Acox3 0.651
GGAAGCGAACGAGACACUUTT against Pla2g4a -0.404
GGAAAACAAGACUUCAAUCTT against Gypa 0.369
GGCAGAUCAGAAUUGAAUUTT against Fgd6 -0.528
GGAAACACAGCAAUAGAUUTT against Cplx1 -0.00292
GGAUCCUGCUCAAAAAAGUTT against Arxes1 -0.431
GGCCAGUGUGUGGUCUAAGTT against Cd1d2 1.89
GGAGUUGAUAAUAUGGUGGTT against Uck1 0.712
GGAUAUUCUUCUUAAGCAGTT against Agbl5 -0.168
GCUAAACAGAACAGGUUGUTT against Pdpn 0.415
GGAAGAUAACAUCAACAAATT against Arl6ip5 0.702
CGGACUCACAGAGCUAAGATT against Tnp2 1.56
GGCCGAAUUGUGUCUUGGUTT against Dnmt3a -1.71
GGGUCUGGUUCUGUAACCATT against Pou4f3 -1.94
GGAGACUGAGACUUUAGAGTT against Gadd45b -0.209
GGGUGUAGAAAAGAAGAAATT against Gsap 0.685
GCCCUAUACCUUAUUUAAUTT against Ros1 1.74
CCCUACACGCAGGAGUUUUTT against Gtf3c1 -0.23
GGAGUCAGUACUUCAAGAUTT against Zfp148 -0.635
CGAUCGAUAAAUGUAAUGATT against Heatr5a -0.0662
GGGAUGGGCUUCUGAAUAATT against Vmn1r205 -0.00314
GGAAGAACCACCUUCAUGCTT against Btn2a2 0.187
GGCUAUGUUACCAGAAAGCTT against Mfsd3 -1.09
GCCUAUAUGGAACACUGGGTT against Mrps6 0.6
GCAAGACUCUACACAUCACTT against Nox4 0.0384
GGAACAGUAUAUAAGUUCATT against Hcfc2 -0.593
CCUUUCUCAUGCUAUGGAGTT against Poc1b -0.853
GGAUGUCUAUAGUGAGAUUTT against Psg16 -0.0706
GGAACACCUACAGUAUAAATT against Cdc123 -0.39
GGAGAGACUGACAAAAACCTT against Mrvi1 -0.0504
GGGUUUUGAAACAUGCAGGTT against Cd44 -1.54
GGAUGACAAAAAUUUCAAGTT against St14 -0.283
GCAGUUGCUAUGUUCUAUATT against Olfr1257 -0.513
CGACAAGGAAAGUUGAUGUTT against Hdac3 -0.0618
GUACCUGAACUCAACUGAGTT against Ffar2 -0.0572
GGAGGAACAAUAAACUGUATT against Dcaf8l 0.321
CGGUUCAUCUGGGAGUAUGTT against Rerg -1.3
CCCACUUGCUGAAAAUUGUTT against Ankib1 -0.338
GCAAGGGCAAGUCCACAAATT against Gjb3 0.428
CCCUAUGCAAUAUCAAAAUTT against Hnrnpa1 1.22
GCAACACGAAUAUCACAGGTT against Hadha 0.356
GGCAAGUGAGGAAAAGAGGTT against Setd1a -0.741
GCAACCUCAUACCAAAGAGTT against Zfyve26 0.211
GGAGAAGAGCAUGCCUUUCTT against Lgals6 -0.138
GCCAACUUUGCCAUUAAAATT against Rnf208 -0.376
CCUUCUGGUGCUUUUAGAGTT against Tlm -0.486
CCGUAAGAAGGAAAACGCATT against Kcnd1 -0.506
GGGACUUGAGUAGCUGACUTT against Sgta -1.49
GGACUCUGGACCUUAUGCUTT against Tmem202 -0.921
GGCGAUAACUGUCGAUACUTT against Mkrn1 0.524
GGAGCUUCUUUUCCCUCUATT against Gcgr -0.684
GCAAGAGGUCUGAAGUAUGTT against Pde4dip 0.0997
GGGUUUUGCUAUGUGGCCUTT against Farsa -1.18
GGAAGAAUCAAAAACCUUCTT against Ddit3 1.16
GGACGUAACAAAAUGUUCUTT against P2ry12 0.578
CCCUUGUCCAGUGUGAGUUTT against Tmem184b 1.07
GGCUAAAGAACAUGAUACCTT against Sema4a 1.19
GGAAGAAGUCAGAUGUGGATT against Radil -0.315
GGAAUCAACUUGGUGGCUCTT against Rxrg -0.0611
GGGCUGCUAUUUUGAUGGUTT against Chrd 0.704
GGAUGUCUCAAAGUAAGAATT against Cd55b -0.124
CCUAUGUCAUUUGUAAUGATT against Tceanc -1.26
ACUUCCUGACUGAGAGACATT against Olfr485 0.981
CCCGAUUAUUCAUCUGCACTT against Kbtbd7 0.947
GGUUAUCCCAGCUACCACATT against 9630013D21Rik -0.761
AAAAGUUAAUCAUCCGGCATT against Olfr732 -0.099
UUCCAUUUUUUGGAGACCATT against Ugt3a1 -0.153
CGAAUUCUCUACCAGUUUUTT against Psd4 0.41
GGAAGAAAAAAAAUCUCCATT against Frmd3 0.577
GCCAACAAUUUGAAGAACGTT against Spats1 1.1
GGUACGAUGAACUCACAGATT against Ints1 0.393
GCUUUACGCAUCCUACGUGTT against Ftmt -1.54
GGAAAGAUUCAAAGAACCUTT against Rpia 1.45
GCGGAAAGGCCAAACGAUUTT against Inhbb -0.734
CCAUCUGAUUUCUUUCCAGTT against Gm5154 -0.783
GGAGAUCAUUAAAAAGCUGTT against Kat2b 0.229
CCUCUUAAACAUGUCCUAGTT against Atp6v0a2 -1.04
GCAUAAUGGAUGGAAAGUCTT against Tasp1 1.1
GGACAAUGAGCUCUCCUUCTT against Abi3 1.21
GGGCUGACUAUUAUUUCAGTT against Cysltr2 -0.107
GGGUCAAACGACUUAGAAATT against Col5a2 -0.775
CCUUCUGUAUAGGUUCUGGTT against Slc41a3 0.716
CGAUAUUGAUGAUCUAGUCTT against Kdm4a 0.576
GGUCAAGUUCGCCAUUAAATT against 2310022A10Rik -0.283
GGAACCGUAGCUUGUCUGCTT against Rgp1 0.907
GGGAAUGUAGACAUGGAAUTT against Tas1r3 1.15
GGAUGUUGUAGCAGCUGCGTT against Olfr353 -0.204
GCCUUAACCACAAUUAAAATT against Etfrf1 -0.578
GGUUAACUCCUUUUCUAGATT against Ints13 -0.52
CGAGCAAGCUUCUACAUACTT against AI182371 0.438
GGUAAUUGAGUUUGACGAUTT against Ptprf 0.585
CCUCUAGACCGAAUGAAAATT against Zfyve16 0.472
GGAUACAAUCCGAAUGAUGTT against Lyrm2 0.484
GGAUUUGGCAAAAUCUUCCTT against Rnpc3 0.481
GGAGGGCAAGAUAGAUGAGTT against Fas -0.0778
GGAUAGACUUGAUUCUUGGTT against Emid1 0.491

Retrieved one by one from above (3):
z-score, inactive:
GGAGAGACUGACAAAAACCTT against Mrvi1 -0.0504
GGAAGAAUCAAAAACCUUCTT against Ddit3 1.16
GGUUAUCCCAGCUACCACATT against 9630013D21Rik -0.761

Copied from above (three entries):
z-score, inactive:
GGCUAUGUUACCAGAAAGCTT against Mfsd3 -1.09
GCCUAUAUGGAACACUGGGTT against Mrps6 0.6
GCAAGACUCUACACAUCACTT against Nox4 0.0384
